Results are given in words; binding and its absence hold for the method and conditions named. Binding seen in cells or lysates may run through a third protein. Some entries that bind do so weakly or less than the wild type.

Protein sequences, listed by entry. Tags and fused reporters are not part of them.
UniProt P19073: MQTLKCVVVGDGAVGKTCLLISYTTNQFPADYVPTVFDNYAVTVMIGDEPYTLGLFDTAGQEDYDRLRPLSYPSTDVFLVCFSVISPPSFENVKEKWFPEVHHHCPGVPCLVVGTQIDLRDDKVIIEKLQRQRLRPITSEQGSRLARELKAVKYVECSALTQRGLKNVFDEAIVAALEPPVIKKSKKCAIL

For the assay, the target named is T1, Gps1-TAP (S. cerevisiae) (UniProt Q99299).
T1 sequence: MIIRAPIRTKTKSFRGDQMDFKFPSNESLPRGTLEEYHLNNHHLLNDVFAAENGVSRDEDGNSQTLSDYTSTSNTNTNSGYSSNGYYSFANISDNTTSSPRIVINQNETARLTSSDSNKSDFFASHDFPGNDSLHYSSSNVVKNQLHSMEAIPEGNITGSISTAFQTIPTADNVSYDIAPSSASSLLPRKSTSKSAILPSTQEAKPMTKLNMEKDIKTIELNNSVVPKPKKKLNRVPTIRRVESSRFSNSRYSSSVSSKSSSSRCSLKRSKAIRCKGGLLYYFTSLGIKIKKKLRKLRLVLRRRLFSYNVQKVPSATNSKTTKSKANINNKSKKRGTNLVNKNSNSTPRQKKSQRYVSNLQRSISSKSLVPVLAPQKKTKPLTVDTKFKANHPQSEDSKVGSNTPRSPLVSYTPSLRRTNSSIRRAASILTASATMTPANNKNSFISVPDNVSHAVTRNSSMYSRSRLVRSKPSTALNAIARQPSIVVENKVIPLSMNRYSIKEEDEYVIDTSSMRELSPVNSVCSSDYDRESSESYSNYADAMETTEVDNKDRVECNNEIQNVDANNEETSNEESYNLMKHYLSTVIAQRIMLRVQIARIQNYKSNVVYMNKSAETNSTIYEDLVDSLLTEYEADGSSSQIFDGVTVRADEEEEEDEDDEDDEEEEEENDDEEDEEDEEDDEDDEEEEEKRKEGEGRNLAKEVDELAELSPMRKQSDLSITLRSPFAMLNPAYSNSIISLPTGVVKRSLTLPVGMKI
The assay can be described thus: co-IP; Gps1-TAP immunoprecipitated from yeast total extract (100-ml culture) with Dynabeads coupled to rabbit IgG; 50 mM Tris-HCl pH 7.5, 150 mM NaCl, 10% glycerol, 0.5% NP40; immunoblotting. A general note: Immunoblotting shows a protein as a band on a membrane.

“Cdc42 (functional tagged protein of the co-immunoprecipitation) (from UniProt P19073 1-191)”: the binding result was “binds”.

The values above are taken from article PMC3582507.
